Source: US20220380383A1, “NEUROPROTECTIVE PDI MODULATING SMALL MOLECULES AND METHODS OF USE THEREOF” (THE TRUSTEES OF COLUMBIA UNIVERSITY IN THE CITY OF NEW YORK, priority 2018, published 2022)
For at least one compound, name, drawing or mass did not settle the structure.

Columns and labels:
[1] = system: H2O2 in PC12 HD model cells; test: HyPer Red H2O2 biosensor imaging; type: cell-based, rat; conditions: 5 μM, tebufenozide-induced cells
[2] = system: ROS production in tebufenozide induced PC12 cells; test: CellRox Deep Red confocal microscopy; type: cell-based, rat; conditions: 3 μM and 5 μM
[3] = system: Glutamate, NMDA, Phencyclidine; test: Off-target panel, Glutamate NMDA; type: binding, rat; conditions: Conc. 3 μM
Potassium Channel [KATP] = test: Off-target panel, Potassium Channel KATP; type: binding, hamster; conditions: Conc. 3 μM
[4] = system: GABAA, Flunitrazepam, Central; test: Off-target panel, GABAA Flunitrazepam; type: binding, rat; conditions: Conc. 3 μM

O=C(C1CC1)N1CCN(Cn2sc3ccccc3c2=O)CC1 [LOC14]
ROS production (HyPer Red imaging) [1]: significant reduction in observable ROS production | ROS production (CellRox Deep Red imaging) [2]: almost completely reduced ROS production | % Inh. [3]: 7% | % Inh. (Potassium Channel [KATP]): 14% | % Inh. [4]: 6%
